These are yes or no findings as the source states them, for the method shown. Binding calls can cover weak binding; strength is not graded here. For part of these data: Binding seen in cells or lysates may run through a third protein. For part of these data: Where a sequence is shown, tags or fusion partners need not be part of it.
Key:
[1] = target: NanoLuc (NL)-conjugated HBc (HBV core protein, derived from HBV genotype C) (hepatitis B virus genotype C); experiment: FRET or BRET; NanoBRET in living HepG2 cells expressing NL-HBc and the indicated HaloTag proteins (Fig. 1c, Fig. 3a)
[2] = target: HA-HBc (HBV core protein, genotype C) (hepatitis B virus genotype C); experiment: co-IP; HepG2 cells expressing viperin truncated mutants and HA-HBc or GFP-GAL9; lysates precipitated with anti-HA or anti-GFP antibodies, immunoblotting
[3] = target: HBc, recombinant (hepatitis B virus (genotype not stated)); experiment: pull-down; in vitro pull-down with recombinant HBc and GAL9 incubated with viperin; anti-HBc antibody; 37 °C, 1 h, Tris buffer pH 7.5; both purified

B1: HaloTag-fused viperin (protein, UniProt Q8WXG1 1-361)
chain: MWVLTPAAFAGKLLSVFRQPLSSLWRSLVPLFCWLRATFWLLATKRRKQQLVLRGPDETKEEEEDPPLPTTPTSVNYHFTRQCNYKCGFCFHTAKTSFVLPLEEAKRGLLLLKEAGMEKINFSGGEPFLQDRGEYLGKLVRFCKVELRLPSVSIVSNGSLIRERWFQNYGEYLDILAISCDSFDEEVNVLIGRGQGKKNHVENLQKLRRWCRDYRVAFKINSVINRFNVEEDMTEQIKALNPVRWKVFQCLLIEGENCGEDALREAERFVIGDEEFERFLERHKEVSCLVPESNQKMKDSYLILDEYMRFLNCRKGRKDPSKSILDVGVEEAIKFSGFDEKMFLKRGGKYIWSKADLKLDW
Question: For B1, which binding [1] is on record?
Answer: binds

Question: What about the binding [2] of the same binder?
Answer: binds

B2: viperin, recombinant (protein, UniProt Q8WXG1 1-361)
chain: B1 chain
Question: How did the binding [3] turn out when B2 was run?
Answer: binds

Source: publication PMC8795376
